From publication PMC3811882

Experiments:
Prdm4-ZFD = biological target: T1, Prdm4-ZFD (UniProt Q80V63); experiment: EMSA; settings: EMSA as previously described (ref 41); 0.8% agarose gels for nuclear complexes, 5% acrylamide for purified His-tagged Prdm4; pH and temperature not given; recombinant protein; protein details: …
T1 sequence (looked up, limits assumed): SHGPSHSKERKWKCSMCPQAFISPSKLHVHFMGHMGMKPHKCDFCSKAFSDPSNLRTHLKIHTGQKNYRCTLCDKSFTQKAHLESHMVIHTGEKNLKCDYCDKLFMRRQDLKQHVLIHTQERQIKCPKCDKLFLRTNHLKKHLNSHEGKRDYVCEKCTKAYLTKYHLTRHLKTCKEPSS

[1] = biological target: Prdm4-EGFP (full length) (mouse) (UniProt Q80V63); experiment: EMSA supershift; settings: supershift with anti-Prdm4 or anti-GFP antibody; EMSA as previously described (ref 41); 0.8% agarose gels for nuclear complexes, 5% acrylamide for purified His-tagged Prdm4; pH and temperature not given; protein in an extract; residues 1-803; protein details: C-terminal EGFP
Prdm4ΔZF-EGFP (mouse) = Prdm4ΔZF-EGFP (mouse) (UniProt Q80V63); experiment: EMSA; settings: nuclear extract, protein predominantly cytoplasmic; EMSA as previously described (ref 41); 0.8% agarose gels for nuclear complexes, 5% acrylamide for purified His-tagged Prdm4; pH and temperature not given; protein in an extract; protein details: C-terminal EGFP

Sequence | binding result (Prdm4-ZFD) | binding result [1] | binding result (Prdm4ΔZF-EGFP (mouse))
GGCCTGGGTCGGCCCGCGGGGATCAGGGAAACCGTCCCCGGTTTATCTCCTT / GGAAGGAGATAAACCGGGGACGGTTTCCCTGATCCCCGCGGGCCGACCCAGG [ΔCT Bahcc1] | binds more weakly |  | 
GGCCTGGGTCGGCCCGCGGGGATCCTGGAAACCGTCCCCGGTTTATCTCCTT / GGAAGGAGATAAACCGGGGACGGTTTCCAGGATCCCCGCGGGCCGACCCAGG [wild-type Bahcc1] |  | binds | no binding
GGCCTGGGTCGGCCCGCTTTTATCCTGGAAACCGTCCCCGGTTTATCTCCTT / GGAAGGAGATAAACCGGGGACGGTTTCCAGGATAAAAGCGGGCCGACCCAGG [ΔGGGG Bahcc1] | binds more weakly |  | 

For at least one entry, the source does not settle the construct or the ends of the probe. For some of these results: A weaker result is weaker than the reference pair of the same experiment. For some of these results: At least one verdict was read from the data and is not stated in words by the source. For some of these results: Tags and fusion partners may be left off the protein sequences shown. For some of these results: Where cells or extracts were used, other partners may take part. For some of these results: A negative result means that nothing was seen under these conditions.
